Measurements as given in US8624027B2, “Combination therapy for treating cancer and diagnostic assays for use therein” (AbbVie Inc., priority 2005, dated 2014).

Test: Pharmacokinetic evaluation in rat
Format: in vivo
Procedure: The pharmacokinetic behavior of compounds of this disclosure was determined following a single 2 mg/kg intravenous or 5 mg/kg oral dose in male Sprague-Dawley derived rats (n=3 per group). The compounds were prepared as 2 mg/mL solution in a 10% DMSO in PEG-400 formulation for both oral and intravenous administration. The 1 mL/kg intravenous dose was administered as a slow bolus (about 1-2 minutes) in the jugular vein of a rat under light ether anesthetic. The oral dose was administered by gavage. Serial blood samples were obtained from a tail vein of each rat prior 0.1 (IV only), 0.25, 0.5, 1, 1.5, 2, 3, 4, 6, 8 and 24 hours after dosing. The heparinized samples were thoroughly mixed and placed in an ice bath. Plasma was separated by centrifugation and stored frozen prior to analysis.
The compounds of interest were separated from the plasma using protein precipitation with acetonitrile. A plasma (100-200 μL, sample or spiked standard) aliquot was combined with 50 μL of internal standard (structurally related analog prepared in acetonitrile) and 1 ml acetonitrile in a 96-well polypropylene deep well plate. The plates were vortexed for 30 seconds followed by centrifugation (3500 rpm×15 minutes, 4° C.). In an automated manner, the supernatant was transferred to a clean 96-well plate. The samples were evaporated to near dryness on a Micro-Vap™ under a stream of dry nitrogen over low heat (˜37° C.). The samples were reconstituted vortexing with 0.2 mL 5% DMSO in acetonitrile. A 0.1-0.2 ml aliquot of acetonitrile: 0.1% trifluoroacetic acid (20:80, by volume) was added to each well, followed by an additional 30 second vortexing. The plates were centrifuged (3500 rpm×15 minutes, 4° C.) prior to HPLC-MS/MS analysis. Samples were analyzed simultaneously with spiked plasma standards. All samples from each study were analyzed as a single batch on the LC-MS/MS.
The compounds of interest and the internal standard were separated from each other and co-extracted contaminants on a 50×3 mm Keystone Betasil CN 5 μm column with an acetonitrile: 0.1% trifluoroacetic acid mobile phase (50:50, by volume) at a flow rate of 0.7 ml/min. Analysis was performed on a Sciex API 300™ Biomolecular Mass Analyzer using a heated nebulizer interface. Peak areas of the title compounds and internal standards were determined using the Sciex MacQuan™ software. Calibration curves were derived from peak area ratio (parent drug/internal standard) of the spiked rat plasma standards using least squares linear regression of the ratio versus the theoretical concentration. The methods were generally linear over the range of the standard curve (correlation coefficients >0.99) with an estimated quantitation limit of 0.01 μg/mL. The plasma concentration data for each animal were submitted to multi-exponential curve fitting using WinNonlin. The area under the plasma concentration-time curve from 0 to t hours (time of the last measurable plasma concentration) after dosing (AUC0-t) was calculated using the linear trapezoidal rule for the plasma concentration-time profiles. The residual area extrapolated to infinity, determined as the final measured plasma concentration (Ct) divided by the terminal elimination rate constant (β), was added to AUC0-t to produce the total area under the curve (AUC0-∞). Ki values shown in the tables below were determined using Wang's equation (Wang Z X., An Exact Mathematical Expression For Describing Competitive Binding Of Two Different Ligands To A Protein Molecule. FEBS Lett. 1995; 360:111-4)).

[1] = rat oral AUC / NCI-H146 EC50, Table 1

Row | Compound | PK/PD ratio AUC/EC50 [1] | PK/PD ratio AUC/EC50 (Table 3)
1 | CC(C)N(C)CC[C@H](CSc1ccccc1)Nc1ccc(S(=O)(=O)NC(=O)c2ccc(N3CCN(CC4=C(c5ccc(Cl)cc5)CCCCC4)CC3)cc2)cc1S(=O)(=O)C(F)(F)F [Example 5, N-(4-(4-((2-(4-chlorophenyl)-1-cyclohepten-1-yl)methyl)piperazin-1-yl)benzoyl)-4-(((1R)-3-(isopropyl(methyl)amino)-1-((phenylsulfanyl)methyl)propyl)amino)-3-((trifluoromethyl)sulfonyl)benzenesulfonamide] | 57 | –
2 | O=C(NS(=O)(=O)c1ccc(N[C@H](CCN2CCCC2)CSc2ccccc2)c(S(=O)(=O)C(F)(F)Cl)c1)c1ccc(N2CCN(CC3=C(c4ccc(Cl)cc4)CCCCC3)CC2)cc1 [Example 32, 3-((chloro(difluoro)methyl)sulfonyl)-N-(4-(4-((2-(4-chlorophenyl)cyclohept-1-en-1-yl)methyl)piperazin-1-yl)benzoyl)-4-(((1R)-1-((phenylsulfanyl)methyl)-3-(pyrrolidin-1-yl)propyl)amino)benzenesulfonamide] | 73.9 | –
3 | CC(C)N(C)CC[C@H](CSc1ccccc1)Nc1ccc(S(=O)(=O)NC(=O)c2ccc(N3CCN(CC4=C(c5ccc(Cl)cc5)CC(C)(C)CC4)CC3)cc2)cc1S(=O)(=O)C(F)(F)F [Example 14, N-(4-(4-((2-(4-chlorophenyl)-4,4-dimethylcyclohex-1-en-1-yl)methyl)piperazin-1-yl)benzoyl)-4-(((1R)-3-(isopropyl(methyl)amino)-1-((phenylsulfanyl)methyl)propyl)amino)-3-((trifluoromethyl)sulfonyl)benzenesulfonamide] | 111 | –
4 | CC(C)N(C)CC[C@H](CSc1ccccc1)Nc1ccc(S(=O)(=O)NC(=O)c2ccc(N3CCN(CC4=C(c5ccc(Cl)cc5)CCCC4)CC3)cc2)cc1S(=O)(=O)C(F)(F)F [Example 33, N-(4-(4-((2-(4-chlorophenyl)cyclohex-1-en-1-yl)methyl)piperazin-1-yl)benzoyl)-4-(((1R)-3-(isopropyl(methyl)amino)-1-((phenylsulfanyl)methyl)propyl)amino)-3-((trifluoromethyl)sulfonyl)benzenesulfonamide] | 79.8 | 79.8
5 | CC1(C)CCC(CN2CCN(c3ccc(C(=O)NS(=O)(=O)c4ccc(N[C@H](CCN5CCCC5)CSc5ccccc5)c(S(=O)(=O)C(F)(F)Cl)c4)cc3)CC2)=C(c2ccc(Cl)cc2)C1 [Example 31, 3-((chloro(difluoro)methyl)sulfonyl)-N-(4-(4-((2-(4-chlorophenyl)-4,4-dimethylcyclohex-1-en-1-yl)methyl)piperazin-1-yl)benzoyl)-4-(((1R)-1-((phenylsulfanyl)methyl)-3-(pyrrolidin-1-yl)propyl)amino)benzenesulfonamide] | 392 | –
6 | O=C(NS(=O)(=O)c1ccc(N[C@H](CCN2CCCC2)CSc2ccccc2)c(S(=O)(=O)C(F)(F)F)c1)c1ccc(N2CCN(CC3=C(c4ccc(Cl)cc4)CCCC3)CC2)cc1 [Example 27, N-(4-(4-((2-(4-chlorophenyl)cyclohex-1-en-1-yl)methyl)piperazin-1-yl)benzoyl)-4-(((1R)-1-((phenylsulfanyl)methyl)-3-(pyrrolidin-1-yl)propyl)amino)-3-((trifluoromethyl)sulfonyl)benzenesulfonamide] | 112 | –
7 | O=C(NS(=O)(=O)c1ccc(N[C@H](CCN2CC3CC2CO3)CSc2ccccc2)c(S(=O)(=O)C(F)(F)F)c1)c1ccc(N2CCN(CC3=C(c4ccc(Cl)cc4)CCCCC3)CC2)cc1 (stereo partly drawn) [Example 12, N-(4-(4-((2-(4-chlorophenyl)cyclohept-1-en-1-yl)methyl)piperazin-1-yl)benzoyl)-4-(((1R)-3-(2-oxa-5-azabicyclo[2.2.1]hept-5-yl)-1-((phenylsulfanyl)methyl)propyl)amino)-3-((trifluoromethyl)sulfonyl)benzenesulfonamide] | 76 | –
8 | O=C(NS(=O)(=O)c1ccc(N[C@H](CCN2CCOCC2)CSc2ccccc2)c(S(=O)(=O)C(F)(F)F)c1)c1ccc(N2CCN(CC3=C(c4ccc(Cl)cc4)CCCC3)CC2)cc1 [Example 7, N-(4-(4-((2-(4-chlorophenyl)cyclohex-1-en-1-yl)methyl)piperazin-1-yl)benzoyl)-4-(((1R)-3-(morpholin-4-yl)-1-((phenylsulfanyl)methyl)propyl)amino)-3-((trifluoromethyl)sulfonyl)benzenesulfonamide] | 66 | 65.6
9 | CN(C)CC[C@H](CSc1ccccc1)Nc1ccc(S(=O)(=O)NC(=O)c2ccc(N3CCN(CC4=C(c5ccc(Cl)cc5)CCCC4)CC3)cc2)cc1S(=O)(=O)C(F)(F)Cl [Example 18, 3-((chloro(difluoro)methyl)sulfonyl)-N-(4-(4-((2-(4-chlorophenyl)cyclohex-1-en-1-yl)methyl)piperazin-1-yl)benzoyl)-4-(((1R)-3-(dimethylamino)-1-((phenylsulfanyl)methyl)propyl)amino)benzenesulfonamide] | 40 | 39.5
10 | CC1(C)CCC(CN2CCN(c3ccc(C(=O)NS(=O)(=O)c4ccc(N[C@H](CCN5CCCC5)CSc5ccccc5)c(S(=O)(=O)C(F)(F)F)c4)cc3)CC2)=C(c2ccc(Cl)cc2)C1 [Example 34, N-(4-(4-((2-(4-chlorophenyl)-4,4-dimethylcyclohex-1-en-1-yl)methyl)piperazin-1-yl)benzoyl)-4-(((1R)-1-((phenylsulfanyl)methyl)-3-(pyrrolidin-1-yl)propyl)amino)-3-((trifluoromethyl)sulfonyl)benzenesulfonamide] | 554 | –
11 | O=C(NS(=O)(=O)c1ccc(N[C@H](CCN2CCOCC2)CSc2ccccc2)c(S(=O)(=O)C(F)(F)Cl)c1)c1ccc(N2CCN(CC3=C(c4ccc(Cl)cc4)CCCC3)CC2)cc1 [Example 3, 3-((chloro(difluoro)methyl)sulfonyl)-N-(4-(4-((2-(4-chlorophenyl)-1-cyclohex-1-en-1-yl)methyl)piperazin-1-yl)benzoyl)-4-(((1R)-3-(morpholin-4-yl)-1-((phenylsulfanyl)methyl)propyl)amino)benzenesulfonamide] | 144 | 143.6
12 | CC(C)N(C)CC[C@H](CSc1ccccc1)Nc1ccc(S(=O)(=O)NC(=O)c2ccc(N3CCN(CC4=C(c5ccc(Cl)cc5)CCC(C)(C)C4)CC3)cc2)cc1S(=O)(=O)C(F)(F)Cl [Example 23, 3-((chloro(difluoro)methyl)sulfonyl)-N-(4-(4-((2-(4-chlorophenyl)-5,5-dimethylcyclohex-1-en-1-yl)methyl)piperazin-1-yl)benzoyl)-4-(((1R)-3-(isopropyl(methyl)amino)-1-((phenylsulfanyl)methyl)propyl)amino)benzenesulfonamide] | 67 | –
13 | O=C(NS(=O)(=O)c1ccc(N[C@H](CCN2CCCC2)CSc2ccccc2)c(S(=O)(=O)C(F)(F)F)c1)c1ccc(N2CCN(CC3=C(c4ccc(Cl)cc4)CCCCC3)CC2)cc1 [Example 29, N-(4-(4-((2-(4-chlorophenyl)cyclohept-1-en-1-yl)methyl)piperazin-1-yl)benzoyl)-4-(((1R)-1-((phenylsulfanyl)methyl)-3-(pyrrolidin-1-yl)propyl)amino)-3-((trifluoromethyl)sulfonyl)benzenesulfonamide] | 58 | –
14 | CN(C)CC[C@H](CSc1ccccc1)Nc1ccc(S(=O)(=O)NC(=O)c2ccc(N3CCN(CC4=C(c5ccc(Cl)cc5)CCCCC4)CC3)cc2)cc1S(=O)(=O)C(F)(F)F [Example 17, N-(4-(4-((2-(4-chlorophenyl)cyclohept-1-en-1-yl)methyl)piperazin-1-yl)benzoyl)-4-(((1R)-3-(dimethylamino)-1-((phenylsulfanyl)methyl)propyl)amino)-3-((trifluoromethyl)sulfonyl)benzenesulfonamide] | 31 | –
